The assay has as its target C1q (UniProt P02745). Nature of the assay: C1q binding ELISA: protein coated on the plate and titrated, 2 µg/mL C1q added, anti-C1q-HRP, OD450.

Sequences of proteins named here, by UniProt entry; tags and fusion partners are left off. A change or cut given only in a name is not applied to a line headed by its entry.
UniProt P02745: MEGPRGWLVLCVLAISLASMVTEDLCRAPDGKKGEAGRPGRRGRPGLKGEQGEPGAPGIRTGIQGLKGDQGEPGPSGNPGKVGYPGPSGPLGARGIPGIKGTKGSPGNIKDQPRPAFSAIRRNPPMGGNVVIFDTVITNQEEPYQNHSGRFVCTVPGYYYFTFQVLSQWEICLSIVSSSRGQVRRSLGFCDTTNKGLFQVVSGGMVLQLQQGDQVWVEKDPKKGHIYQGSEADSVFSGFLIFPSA

The text below walks through data of patent US20160130324A1.

No constants are given. Whether binding was seen depends on the method and setting. Some results given as binding are weak or reduced against the parent protein; the word gives no strength.

B1: recombinant C1-INH (protein, UniProt P05155 23-500, looked up)
chain: NPNATSSSSQDPESLQDRGEGKVATTVISKMLFVEPILEVSSLPTTNSTTNSATKITANTTDEPTTQPTTEPTTQPTIQPTQPTTQLPTDSPTQPTTGSFCPGPVTLCSDLESHSTEAVLGDALVDFSLKLYHAFSAMKKVETNMAFSPFSIASLLTQVLLGAGENTKTNLESILSYPKDFTCVHQALKGFTTKGVTSVSQIFHSPDLAIRDTFVNASRTLYSSSPRVLSNNSDANLELINTWVAKNTNNKISRLLDSLPSDTRLVLLNAIYLSAKWKTTFDPKKTRMEPFHFKNSVIKVPMMNSKKYPVAHFIDQTLKAKVGQLQLSHNLSLVILVPQNLKHRLEDMEQALSPSVFKAIMEKLEMSKFQPTLLTLPRIKVTTSQDMLSIMEKLEFFDFSYDLNLCGLTEDPDLQVSAMQHQTVLELTETGVEAAAASAISVARTLLVFEVQQPFLFVLWDQQHKFPVFMGRVYDPRA
On to B1, for which the binding entry is recorded as “binds”.
